Reference: PubChem BioAssay AID2685 (National Center for Advancing Translational Sciences (NCATS), 2010)
This is one part of the list. Shown are side measurements of this screen, not its main read-out; they come without a call. Compounds called inactive in the main read-out are mostly missing here. Potencies come from curve fits of mixed quality, noted in brackets.

Assay: qHTS Assay for Lipid Storage Modulators in Drosophila S3 Cells;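 on cell number change: cells counted by Cell Tracker Red CMTPX staining in the red channel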
Conditions: BODIPY lipid droplet fluorescence, 18-24 h; for cell number change: measured here: cell count max response, cells fed with added oleic acid
In short: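 Laser-scanning cytometry quantifies lipid droplet accumulation (500–530 nm total intensity; droplet/cell object ratio) in oleic acid-fed (400 uM added) Drosophila S3 cells treated with a concentration series. 20 uM Triacsin C defined 100% inhibition.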

[1] = measured here: lipid fluorescence (Fed channel) AC50, cells fed with added oleic acid
[2] = measured here: cell number channel AC50, cells fed with added oleic acid

SMILES | cell number change | AC50 [1] | AC50 [2]
O=C(/C=C/c1ccc(F)cc1)Nc1ccc(S(=O)(=O)N2CCOCC2)cc1 | -5.79% | 7.94 µM [falling, partial curve, poor fit] | 
COc1cccc(C(=O)NCC2CCCN(C(=O)c3ccc(C=O)cc3)C2)c1OC (stereo unspecified) | -11.8% | 35.5 µM [falling, single point] | 
Cc1cc(S(=O)(=O)N(Cc2ccccn2)Cc2ccco2)ccc1-n1cnnn1 | -22% | 3.66 µM [falling, full curve, poor fit] | 0.00461 µM [falling, full curve, poor fit]
O=C1CC(c2ccccc2)Cc2nc(NCc3ccco3)ncc21 (stereo unspecified) | -2.62% | 5.8 µM [rising, single point] | 
O=C1N(Cc2cccc(Cl)c2)C[C@@H]2C[C@@H](c3ccsc3)N3CCC[C@@]123 | -25% | 4.11 µM [falling, full curve, poor fit] | 
CN1C(C)(C)CC(=NOC(=O)c2ccccc2)CC1(C)C | 12% | 16.4 µM [rising, partial curve, poor fit] | 
CC(C)Cn1c(=O)c2c(nc3n2CCCN3CCc2ccccc2)n(C)c1=O | -15.2% |  | 
Cc1cc(C)n(CC(O)COCc2ccccc2)n1 (stereo unspecified) | -18.5% | 0.0326 µM [falling, full curve, poor fit] | 0.00517 µM [falling, full curve, poor fit]
Cc1cc(C)nc(NS(=O)(=O)c2ccc(NC(=O)C(C)Oc3ccccc3F)cc2)n1 (stereo unspecified) | 2.25% | 29.1 µM [rising, single point] | 
CC(C)(C)c1cccc(Cn2nnc3ccccc32)c1O | -83.4% |  | 23.1 µM [falling, partial curve]
CCC(Sc1nc2ccc(N)cc2s1)C(=O)Nc1nccs1 (stereo unspecified) |  | 1.16 µM [rising, full curve] | 
COC(=O)C1=C(C(=O)OC)[C@@H]2N(C)c3ccccc3[C@@]23C[C@@H](C(=O)OC)N(C(C)=O)C3=N1 | -0.344% | 0.82 µM [falling, single point] | 
COc1ccc(CCNC(=S)c2ccccc2)cc1OC | -18.1% |  | 
Brc1ccccc1C1CC(c2ccccc2)=Nc2ccccc2N1 (stereo unspecified) |  |  | 6.51 µM [rising, single point]
Cc1ccc2c(=O)cc(C(=O)NC3CCS(=O)(=O)C3)oc2c1C (stereo unspecified) | 14.3% | 10.3 µM [falling, single point] | 
COC(=O)CCCCCC(CCC(=O)OC)NC(C)=O (stereo unspecified) | 1.48% |  | 
Cc1cccc(C2NC(c3cccc(C)c3)C([N+](=O)[O-])C(C)(C)C2[N+](=O)[O-])c1 (stereo unspecified) |  | 2.91 µM [falling, partial curve] | 
COc1ccc2c(Cl)c(-c3nnc(SCC(=O)c4ccccc4)n3C)sc2c1 | 11.1% | 16.4 µM [falling, single point] | 
O=C(N/N=C/c1ccccc1OCC(=O)N1CCCC1)C(=O)Nc1ccccc1F | 15.4% |  | 
CCOC(=O)N1CCC(NC(=O)CCc2cn(C)c3ccccc23)CC1 | -1.14% | 29.1 µM [rising, single point] | 
O=C(N/N=C\c1ccc(-c2ccccc2[N+](=O)[O-])o1)C1COc2cc3ccccc3cc2O1 (stereo unspecified) | -3.24% |  | 
COc1ccc(NS(=O)(=O)c2ccc3c(c2)oc(=O)n3C)c(OC)c1 | 1.32% |  | 

SMILES | cell number change | AC50 [1] | AC50 [2]
CCOC(=O)c1cc(C)n(-c2c(C)n(C)n(-c3ccccc3)c2=O)c1C |  |  | 6.51 µM [rising, single point]
CCc1cccc(C)c1NC(=O)CO/N=C(\C)c1cc2ccccc2o1 | -12.8% |  | 
COc1ccc(S(=O)(=O)N2CCCC2CNC(=O)C(=O)NCCc2ccccc2)cc1 (stereo unspecified) | 58.6% |  | 29.1 µM [rising, single point]
Cc1cccc(NC(=O)Cc2c(F)cccc2Cl)n1 | 21.6% | 29.1 µM [rising, single point] | 
CN(C)CCNC(=O)c1cccc(NS(=O)(=O)c2ccc(Cl)c(Cl)c2)c1 | 24% | 29.1 µM [rising, single point] | 
CC(C)Cn1c(N)c(C(=O)COC(=O)CN2C(=O)C3CC=CCC3C2=O)c(=O)n(C)c1=O (stereo unspecified) | -42% |  | 29.1 µM [falling, single point]
Brc1ccc(-c2c(-c3ccsc3)sc3ccccc23)cn1 | 0.194% | 1.16 µM [falling, single point] | 1.16 µM [falling, single point]
O=C(CC1Oc2ccccc2NC1=O)NC1CCCC1 (stereo unspecified) | -0.264% | 1.64 µM [falling, partial curve] | 
O=C(CCc1nnc(CCCc2ccccc2)o1)NCCc1ccccc1 | -8.19% | 6.51 µM [falling, single point] | 
COc1cc(OC)c2cc(C(=O)N/N=C/c3ccccc3O)[nH]c2c1 | -14.7% | 14.6 µM [falling, single point] | 
O=C(C1CCN(S(=O)(=O)c2ccccc2)CC1)N1CCCCC1 | 18.4% |  | 0.0058 µM [rising, full curve, poor fit]
Brc1cc2c(cc1CSc1ncccn1)OCO2 | 7.08% |  | 
Cc1ccc2[nH]c3c(N4CCCCCC4)ncnc3c2c1 | -190% |  | 29.1 µM [falling, single point]
O=C(CCn1cnc2ccccc2c1=O)Nc1cccc(Cl)c1Cl |  | 0.00461 µM [falling, full curve, poor fit] | 
O=C(NC1CCCCC1)C(c1ccccc1)N(Cc1ccc2c(c1)OCO2)C(=O)c1cnsn1 (stereo unspecified) | -50.7% | 20.6 µM [falling, partial curve] | 16.4 µM [falling, single point]
COCCn1c(N)c(Sc2ccc(C)cc2)c(=O)[nH]c1=O | -1.28% |  | 
CCc1ccccc1NC(=S)N(CCCN(C)C)Cc1cc2cc3c(cc2[nH]c1=O)OCO3 | 33.2% | 1.3 µM [rising, full curve, poor fit] | 0.461 µM [rising, full curve]
Cc1sc(NC(=O)C2CC=CCC2C(=O)O)c(C(=O)OC(C)C)c1C (stereo unspecified) | 59.3% |  | 2.31 µM [rising, partial curve]
Cc1ccc(-c2nc3ccccc3o2)cc1NC(=S)NC(=O)c1cccs1 | -18.4% | 13 µM [falling, single point] | 
COc1ccc(-n2nc3cc(C)c(N)c(Br)c3n2)cc1 | -21.6% | 0.82 µM [rising, full curve] | 
N#Cc1nc(N)nc(N(c2ccccc2)c2ccccc2)n1 | -26.4% | 10.3 µM [falling, partial curve, poor fit] | 
COc1ccc(CN2CCc3c([nH]c4ccccc34)C2)cc1Br | -10.4% |  | 

Gathered by group, the entries above with bromine
SMILES | cell number change | AC50 [1] | AC50 [2]
Brc1ccccc1C1CC(c2ccccc2)=Nc2ccccc2N1 (stereo unspecified) |  |  | 6.51 µM [rising, single point]
Brc1ccc(-c2c(-c3ccsc3)sc3ccccc23)cn1 | 0.194% | 1.16 µM [falling, single point] | 1.16 µM [falling, single point]
Brc1cc2c(cc1CSc1ncccn1)OCO2 | 7.08% |  | 
COc1ccc(-n2nc3cc(C)c(N)c(Br)c3n2)cc1 | -21.6% | 0.82 µM [rising, full curve] | 
COc1ccc(CN2CCc3c([nH]c4ccccc34)C2)cc1Br | -10.4% |  | 

Additional results follow.

SMILES | cell number change | AC50 [1] | AC50 [2]
COc1ccc2nc3oc(C(=O)N4CC(C)CC(C)C4)cc3cc2c1 (stereo unspecified) | -12.4% | 0.58 µM [rising, single point] | 
COc1ccccc1C/C(N)=N/OC(=O)c1ccc2c(c1)OCO2 | 31.6% |  | 
CC(CNC(=O)CCC(=O)N1CCOc2ccc(Cl)cc21)c1ccccc1 (stereo unspecified) |  | 0.517 µM [falling, full curve] | 
CC(C)(C)CC(=O)NC(=S)NCc1ccccc1 | -17.2% | 0.164 µM [rising, single point] | 
CC(C)Oc1ccc(C(CC(=O)O)Cc2ccccc2)cc1 (stereo unspecified) | 22.9% | 23.1 µM [falling, partial curve] | 
C#Cc1cccc(C(=O)N2CCCC(Nc3cccc(F)c3)C2)c1 (stereo unspecified) | -18.8% | 23.1 µM [rising, single point] | 
CCOC(=O)/C=C/[C@H]1Cc2ccccc2CO1 | -31.2% | 0.13 µM [rising, full curve, poor fit] | 0.082 µM [falling, full curve, poor fit]
CCOC(=O)c1cc(=O)n2nc(-c3ccc(C)cc3)nc2s1 | 5.65% |  | 
COc1ccc2c(c1OC)C(=O)N(c1ccc(C)cc1)C2=O | 121% |  | 29.1 µM [rising, single point]
CN1CCN(S(=O)(=O)c2ccc(NC(=O)c3ccc(F)cc3)cc2)CC1 | 6.41% |  | 
COc1ccc(OC)c(-c2cnc(OC(C)(C)C)nc2OC(C)(C)C)c1 | -8.46% | 4.11 µM [falling, partial curve, poor fit] | 
COc1cccc(N2CC(O)Cn3c2nc2c3c(=O)n(CCCc3ccccc3)c(=O)n2C)c1 (stereo unspecified) | -31.2% |  | 0.92 µM [falling, full curve, poor fit]
COc1ccc(CCN=C2SCC(=O)N2C)cc1OC |  |  | 0.461 µM [falling, single point]
CC1CCCCC1NC(=O)CN1C(=O)NC(C)(c2cccc(Br)c2)C1=O (stereo unspecified) | -12.8% | 10.3 µM [falling, partial curve] | 5.8 µM [falling, single point]
Cc1ccc(Cn2c(O)c(N=NC(=S)Nc3ccccc3F)c3ccccc32)cc1 | -40.1% | 14.6 µM [falling, partial curve, poor fit] | 18.4 µM [falling, partial curve]
COc1cccc([C@@H]2CC=C(C(=O)O)[C@H](c3ccccc3)N2S(=O)(=O)c2ccc(C)cc2)c1 | 21.2% | 0.651 µM [rising, single point] | 
COc1cc(OC)c(C2SCCCS2)cc1OC | 2.9% | 8.2 µM [rising, partial curve] | 
CCCc1nnc(NC(=O)CC(C)c2ccccc2)s1 (stereo unspecified) | 25.3% | 6.51 µM [rising, single point] | 
COC(=O)Cn1cnc2c(nnn2-c2ccc(OC)cc2)c1=O | -0.37% |  | 
O=C1CCCN2N=C(SCC(=O)Nc3ccc(F)cc3F)SC2=N1 | -0.952% | 6.51 µM [falling, partial curve] | 0.231 µM [falling, full curve, poor fit]
